The other results are listed elsewhere or left out. Many values rest on one well or one pass, so single values are uncertain.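 Hepatocyte-like cells derived from human stem cells with CRISPR-disrupted DGUOK model liver mtDNA depletion syndrome. Each well's ATP signal was scored against other wells on the same plate, and drugs scoring 3 or above were primary hits.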

This experiment concerns DGUOK Δ14/Δ5 iPSC-derived hepatocyte-like cells (SV20). Briefly: ATP level (CellTiter-Glo luminescence) Z score relative to plate distribution, under 2-DG glycolysis block; higher = more cellular ATP (rescue of mitochondrial ATP production). To be noted: 5 µM; treatment time: day 15 to day 20 of differentiation (5 days); 2-deoxy-D-glucose: 20 mM for 24 h before assay. (ATP-based viability assays read luminescence as a measure of living cells.)
As to `O=c1c(O)cccc2cc(O)c(O)c(O)c12`, the ATP level is inactive: -0.394. Then `Cc1ccc(S(=O)(=O)NC(=O)NN2CC3CCCC3C2)cc1` (stereo not given), with inactive: 2.89. Then `CC(=O)N[C@@H](CC(=O)N[C@@H](CCC(=O)O)C(=O)O)C(=O)O`, with inactive: -2.42; and `Nc1nc(=O)c2[nH]c(=O)cnc2[nH]1`, with inactive: 0.448. Then `O=C(O)c1cc2ccccc2[nH]1`, with inactive: -1.11; and `C#CCN(C)Cc1ccccc1`, with inactive: 1.91; and `CC(=O)O[C@H]1CC[C@@]2(C)[C@H](CC[C@@H]3[C@@H]2CC[C@]2(C)[C@@H]4[C@H](C[C@@H]32)O[C@]2(CC[C@@H](C)CO2)[C@H]4C)C1`, with active: 3.11. On to `CCCCCC(C)N` (stereo not given), for which the ATP level was inactive: -0.955. Then `O=C(O)CCC(=O)OC[C@@H](NC(=O)C(Cl)Cl)[C@H](O)c1ccc([N+](=O)[O-])cc1`, with inactive: -1.27; and `COc1ccc2cc(CCC(C)=O)ccc2c1`, with inactive: 2.35; and `COc1ccc(-c2oc3c(CC=C(C)C)c(O[C@@H]4O[C@H](CO)[C@@H](O)[C@H](O)[C@H]4O)cc(O)c3c(=O)c2O[C@@H]2O[C@@H](C)[C@H](O)[C@@H](O)[C@H]2O)cc1`, with inactive: -0.726. Then `CCN(CC)CCNC(=O)c1cc(S(C)(=O)=O)ccc1OC`, with active: 3.94; and `Oc1c(I)cc(I)c2cccnc12`, with inactive: 1.

For the molecule `CN1C2CCCC1CC(NC(=O)c1nn(C)c3ccccc13)C2` (stereo not given), the ATP level is inactive: 1.08.

Take `CC(C)CCC[C@@H](C)[C@H]1CC[C@H]2[C@@H]3CC=C4CC(=O)CC[C@]4(C)[C@H]3CC[C@]12C`: the ATP level was inactive: 1.05. Then `CC(C)N1CCN(c2ccc(OCC3COC(Cn4cncn4)(c4ccc(Cl)cc4Cl)O3)cc2)CC1` (stereo not given), with inactive: -4.28; and `CCN(Cc1ccncc1)C(=O)C(CO)c1ccccc1` (stereo not given), with inactive: 0.108. Then `OC(CCN1CCCCC1)(c1ccccc1)C1CC2C=CC1C2` (stereo not given), with inactive: -0.37; and `CCN(CC)CC#CCOC(=O)C(O)(c1ccccc1)C1CCCCC1` (stereo not given), with inactive: -0.654.

In the case of `Cc1ncc([N+](=O)[O-])n1CCO`, the ATP level is inactive: 1.74. Then `Oc1nc2cc(Cl)c(Cl)cc2nc1O`, with inactive: -0.0307; and `CC(=O)OC1CCC23CC1(C)CCC2C(C)(C)CC3OC(C)=O` (stereo not given), with inactive: -0.428. Then `C=CC[C@@H]1/C=C(\C)C[C@H](C)C[C@H](OC)[C@H]2O[C@@](O)(C(=O)C(=O)N3CCCC[C@H]3C(=O)O[C@H](/C(C)=C/[C@@H]3CC[C@@H](O)[C@H](OC)C3)[C@H](C)[C@@H](O)CC1=O)[C@H](C)C[C@@H]2OC`, with inactive: 0.408; and `COc1ccc2[nH]cc(CCNC(C)=O)c2c1`, with inactive: -0.101; and `COc1c2ccoc2nc2c(OC)c(OCC(O)C(C)(C)O)ccc12` (stereo not given), with inactive: 0.664. Then `CC[C@H]1OC(=O)[C@H](C)[C@@H](O[C@H]2C[C@@](C)(OC)[C@@H](O)[C@H](C)O2)[C@H](C)[C@@H](O[C@@H]2O[C@H](C)C[C@H](N(C)C)[C@H]2O)[C@](C)(O)C[C@@H](C)/C(=N\OCOCCOC)[C@H](C)[C@@H](O)[C@]1(C)O`, with active: 4.76; and `CC/C=C\C/C=C\C/C=C\C/C=C\C/C=C\CCCC(=O)OCC` [OMEGA-3-ACID ESTERS (EPA shown)], with inactive: 1.58; and `CC(=O)N[C@@H](CC(C)C)C(=O)O`, with inactive: -0.807. Turning to `C=CC[S+]([O-])C[C@H](N)C(=O)O` (mixture of isomers), the ATP level was inactive: -16.1. On to `Nc1nc(=O)c2nc(CNc3ccc(C(=O)N[C@@H](CCC(=O)O)C(=O)O)cc3)cnc2[nH]1`, for which the ATP level is active: 3.58.

In the case of `CC(=O)OC1CC2(C)C(C(C)=O)CCC2C2CCC3=CC(=O)CCC3(C)C12` (stereo not given), the ATP level is inactive: -3.45. Regarding `C#CCCCCCCCCCCCC(O)CC(O)CO` (stereo not given), the ATP level was inactive: -2.12. Then `O=C1CN2Cc3c(ccc(Cl)c3Cl)N=C2N1`, with inactive: 1.92.

Take `CC(C)NCC(O)COc1ccc(COCCOC(C)C)cc1` (stereo not given): the ATP level was inactive: 1.43.

Regarding `Nc1nc(=S)c2ncn([C@@H]3O[C@H](CO)[C@@H](O)[C@H]3O)c2[nH]1`, the ATP level is inactive: 0.778. Then `O=c1cc(-c2ccc(O)cc2)oc2cc(O)cc(O)c12`, with inactive: 1.27.

Turning to `CCOc1cccc(C(=O)c2ccc(O)c(O)c2O)c1`, the ATP level is inactive: 0.875. Then `CC(=O)OCC(COC(C)=O)OC(C)=O`, with inactive: -0.145. Then `CN(C)CCN(Cc1cccs1)c1ccccn1`, with inactive: -3.67; and `COc1ccc2c(c1)OCc1c-2oc2cc(OC)ccc12`, with inactive: -1.63.

For `COc1ccc([C@H]2COc3c(ccc(O)c3OC)C2)c(OC)c1O`, the ATP level was inactive: 0.737. With `NC(CO)(CO)CO`, the ATP level was inactive: 1.09. Then `NCCC[C@H](N)C(=O)O`, with inactive: -0.574; and `NC(=O)N1c2ccccc2C=Cc2ccccc21`, with inactive: 1.17. Then `CCCNC(C)C(=O)Nc1ccccc1C` (stereo not given), with inactive: 0.956. Then `COc1ccc(CN(CCN(C)C)c2ccccn2)cc1`, with inactive: -1.53. For the molecule `Nc1ncn([C@@H]2O[C@H](CO)[C@@H](O)[C@H]2O)c(=O)n1`, the ATP level is inactive: 1.43. Then `CC(COc1ccccc1)N(CCCl)Cc1ccccc1` (stereo not given), with inactive: -1.9; and `CC(=O)c1ccc(S(=O)(=O)NC(=O)NC2CCCCC2)cc1`, with inactive: -2.98; and `OC[C@H]1O[C@H]([S-])[C@H](O)[C@@H](O)[C@@H]1O.[Au+]`, with inactive: -16.8. Then `O=C(NCc1ccccc1)OCCO`, with inactive: 1.08. Then `Cc1cc(=O)oc2cc(O)ccc12`, with inactive: 2.95. With `Cc1nc2ccccc2n1Cc1ccc(Cl)cc1`, the ATP level is inactive: -11.5. Then `Cn1c(=O)c2nc[nH]c2n(C)c1=O`, with inactive: 0.241; and `c1ccc(C2CN3CCSC3=N2)cc1` (stereo not given), with inactive: -3.72. As to `COc1cc2cc3c4cc(OC)c(OC)cc4cc[n+]3c(C)c2cc1OC`, the ATP level is inactive: -6. Then `CC(=O)O[C@H]1CC[C@]2(C)[C@H]3CC[C@]45OC(=O)[C@@]6(CC[C@@H](C)[C@H](C)[C@H]64)CC[C@@]5(C)[C@]3(C)CC[C@H]2C1(C)C`, with inactive: -0.806.

For the molecule `COc1cc(C(=O)O)cc(OC)c1O`, the ATP level was inactive: 1.42.

`Cc1scc2c1N(C(=O)CN1CCN(C)CC1)c1ccccc1NC2=O`: the ATP level was inactive: 2.42. Then `CO/N=C(\C(=O)N[C@@H]1C(=O)N2C(C(=O)O)=C(CSc3nc(=O)c(O)nn3C)CS[C@H]12)c1csc(N)n1`, with inactive: 2.4; and `O=C(O)CS`, with inactive: -1.72; and `NC1(C(=O)O)CCCC1`, with inactive: -1.68. Then `NCCCC[C@H](N[C@@H](CCc1ccccc1)C(=O)O)C(=O)N1CCC[C@H]1C(=O)O`, with inactive: 2.47; and `C[C@]12CCC(=O)C=C1CC[C@@H]1[C@@H]2[C@@H](O)C[C@@]2(C)[C@H]1CC[C@]2(O)C(=O)COC(=O)CCC(=O)O`, with inactive: 1.92; and `CC(C)(C)NC[C@H](O)COc1nsnc1N1CCOCC1`, with inactive: -0.39. Then `CCOC(=O)[C@H](CCc1ccccc1)N[C@H]1CCc2ccccc2N(CC(=O)O)C1=O`, with inactive: -0.996; and `CC(C)CCC[C@@H](C)[C@H]1CC[C@H]2[C@@H]3CC[C@H]4C[C@H](O)CC[C@]4(C)[C@H]3CC[C@]12C`, with inactive: 1.18; and `COC1=C(OC)C(=O)C(CCCCCCCCCCO)=C(C)C1=O`, with inactive: -0.812. Consider `COc1cc(-c2coc3cc(O)c(OC)c(O)c3c2=O)cc(O)c1OC`, for which the ATP level was inactive: -1.28. Then `CCOC(=O)OC(C)OC(=O)[C@@H]1N2C(=O)[C@@H](NC(=O)[C@H](N)c3ccccc3)[C@H]2SC1(C)C` (stereo not given in full), with active: 4.92; and `CC(=O)OCC(=O)[C@@]12N=C(C)O[C@@H]1C[C@H]1[C@@H]3CCC4=CC(=O)C=C[C@]4(C)[C@H]3[C@@H](O)C[C@@]12C`, with active: 3.09; and `C1CCN2C[C@@H]3C[C@H](CN4CCCC[C@@H]34)[C@H]2C1`, with inactive: -2.37. Turning to `COc1ccc(C(=O)/C=C/c2ccccc2)cc1`, the ATP level was inactive: -2.89. Then `Cc1nc2n(c(=O)c1CCN1CCC(c3noc4cc(F)ccc34)CC1)CCCC2`, with inactive: -4.23. Then `CNCCC(Oc1ccc(C(F)(F)F)cc1)c1ccccc1` (stereo not given), with inactive: -2.32. Then `C=C1c2c(Cl)ccc(O)c2C(O)=C2C(=O)[C@]3(O)C(O)=C(C(N)=O)C(=O)[C@@H](N(C)C)[C@@H]3[C@@H](O)[C@H]12.O=C(O)c1cc(S(=O)(=O)O)ccc1O`, with inactive: -4.5. On to `CC(=O)Nc1ccc(CC(=O)O)cc1`, for which the ATP level was inactive: -0.295. With `C=C1C(=O)O[C@@H]2C[C@@]3(C)CCC[C@H](C)C3=C[C@H]12`, the ATP level was inactive: -0.482. Then `CCN1CC(CCN2CCOCC2)C(c2ccccc2)(c2ccccc2)C1=O` (stereo not given), with inactive: 0.927; and `CCCCNC(=O)NS(=O)(=O)c1ccc(C)cc1`, with inactive: 0.264; and `O=C(O)c1cc(-c2ccc(F)cc2F)ccc1O`, with inactive: 0.762. Then `CC(=O)[C@H]1CC[C@H]2[C@@H]3C[C@H](C)C4=CC(=O)CC[C@]4(C)[C@H]3[C@@H](O)C[C@]12C`, with inactive: 0.517; and `CCOC(=O)OC(C)OC1=C(C(=O)Nc2ccccn2)N(C)S(=O)(=O)c2ccccc21` (stereo not given), with inactive: 0.321.

Take `COC(=O)c1c(C)cc(O)cc1O`: the ATP level is inactive: -1.8. `CCCCCCCCCCCCC[N+](C)(C)Cc1ccccc1`: the ATP level was inactive: -11.7.

Regarding `O=S(=O)(O)CCS`, the ATP level was inactive: 2.38. Then `CCn1cc(C(=O)O)c(=O)c2cnc(N3CCCC3)nc21`, with inactive: -7.58; and `CC(C)Nc1ncccn1`, with inactive: 1.93; and `COc1ccc(C(=O)CC(=O)O)c2c1C=CC(C)(C)O2`, with inactive: 1.24. On to `COC(=O)C[C@H]1C(C)(C)C(=O)[C@@H]2CC3=C4CC(=O)O[C@@H](c5ccoc5)[C@]4(C)CC[C@@H]3[C@@]1(C)C2=O`, for which the ATP level is inactive: -0.239.

The record behind these values is the supplement of paper PMC6289059.
